Drawing on publication PMC3760632, this text covers binding for 1 substance.

Protein sequences, listed by entry. Tags and fused reporters are not part of them. Residues count along the entry.
UniProt P38646, residues 47-679: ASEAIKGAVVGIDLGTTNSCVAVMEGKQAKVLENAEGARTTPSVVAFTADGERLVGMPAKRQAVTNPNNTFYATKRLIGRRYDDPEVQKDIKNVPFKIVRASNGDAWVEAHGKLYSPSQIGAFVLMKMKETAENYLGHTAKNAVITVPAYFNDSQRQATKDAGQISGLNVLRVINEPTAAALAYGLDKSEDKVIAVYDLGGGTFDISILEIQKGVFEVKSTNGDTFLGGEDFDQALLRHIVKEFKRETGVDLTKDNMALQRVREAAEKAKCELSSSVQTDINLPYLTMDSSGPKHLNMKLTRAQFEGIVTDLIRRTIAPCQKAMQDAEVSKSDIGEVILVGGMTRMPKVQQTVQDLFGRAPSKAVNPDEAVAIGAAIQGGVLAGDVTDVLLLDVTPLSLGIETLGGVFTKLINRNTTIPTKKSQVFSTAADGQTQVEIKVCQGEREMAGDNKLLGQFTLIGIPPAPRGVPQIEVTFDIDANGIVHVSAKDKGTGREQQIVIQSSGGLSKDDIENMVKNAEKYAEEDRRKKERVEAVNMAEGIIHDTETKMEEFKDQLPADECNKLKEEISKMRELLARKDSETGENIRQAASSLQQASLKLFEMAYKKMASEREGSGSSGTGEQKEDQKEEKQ

These are yes or no findings as the source states them, for the method shown. Binding seen in cells or lysates may run through a third protein. Some entries that bind do so weakly or less than the wild type.

The assay addresses HIV-1 Nef, full-length (HIV-1) (UniProt P03406). In words: co-IP; second set of coimmunoprecipitation experiments with full-length Nef, without and with the SMRwt peptide.

With mortalin (from UniProt P38646 47-679), the binding result is reported as “binds”.
